PubChem BioAssay AID1117269 – University of Michigan – 2014
The whole screen tested 714 reagents; below is a part drawn at random. 49 of all reagents (6.9%) were called active. 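Active means a hit in at least one line; per-line hit columns show which; some siRNA pools appear more than once.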 Not stated in the record: the amount of reagent.

Test: 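Which kinase knockdowns increase BTR reporter light after TGF-beta stimulation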 (primary screen)
Cell system: human A549 lung cancer and 1833 breast cancer (MDA-MB-231-derived) cell lines carrying a stable BTR luciferase reporter
Knock-down reagent: siRNA pool against human genes
Time to read-out: 72 h after transfection, then 1 h TGF-beta before the read
Treatment: TGF-beta 10 ng/mL added one hour before luciferin and read-out
Measured: 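Live-cell BTR luciferase signal at 72 h after transfection and 1 h of TGF-beta at 10 ng/mL, fold versus scrambled siRNA, triplicate mean for each line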
Direction: fold over scrambled siRNA, A549 and fold over scrambled siRNA, 1833: higher = more reporter light, weaker TGF-beta receptor signalling
Active means: 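Active if a hit in A549 or 1833; a line's hit exceeds an upper quartile-based cutoff on mean log fold values, applied per plate and across the whole screen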
Calls: active = hit in at least one line; inactive = hit in neither line

ZAP70 (zeta chain of T cell receptor associated protein kinase 70) — fold over scrambled siRNA, A549: 1.09; fold over scrambled siRNA, 1833: 8.87; hit in A549: not a hit in A549; hit in 1833: not a hit in 1833; outcome: inactive
ADK (adenosine kinase) — fold over scrambled siRNA, A549: 0.905; fold over scrambled siRNA, 1833: 1.92; hit in A549: not a hit in A549; hit in 1833: not a hit in 1833; outcome: inactive
CSNK1A1L (casein kinase 1 alpha 1 like) — fold over scrambled siRNA, A549: 1.08; fold over scrambled siRNA, 1833: 4.1; hit in A549: not a hit in A549; hit in 1833: not a hit in 1833; outcome: inactive
RPS6KB2 (ribosomal protein S6 kinase B2) — fold over scrambled siRNA, A549: 1.22; fold over scrambled siRNA, 1833: 1.13; hit in A549: not a hit in A549; hit in 1833: not a hit in 1833; outcome: inactive
PRAG1 (PEAK1 related, kinase-activating pseudokinase 1) — fold over scrambled siRNA, A549: 2.87; fold over scrambled siRNA, 1833: 2.47; hit in A549: not a hit in A549; hit in 1833: not a hit in 1833; outcome: inactive
HASPIN (histone H3 associated protein kinase) — fold over scrambled siRNA, A549: 3.48; fold over scrambled siRNA, 1833: 2.93; hit in A549: not a hit in A549; hit in 1833: not a hit in 1833; outcome: inactive
AMHR2 (anti-Mullerian hormone receptor type 2) — fold over scrambled siRNA, A549: 1.29; fold over scrambled siRNA, 1833: 2.14; hit in A549: not a hit in A549; hit in 1833: not a hit in 1833; outcome: inactive
EPHA2 (EPH receptor A2) — fold over scrambled siRNA, A549: 1.28; fold over scrambled siRNA, 1833: 2.18; hit in A549: not a hit in A549; hit in 1833: not a hit in 1833; outcome: inactive
HUS1 (HUS1 checkpoint clamp component) — fold over scrambled siRNA, A549: 1.29; fold over scrambled siRNA, 1833: 2.14; hit in A549: not a hit in A549; hit in 1833: not a hit in 1833; outcome: inactive
MAK (male germ cell associated kinase) — fold over scrambled siRNA, A549: 5.33; fold over scrambled siRNA, 1833: 6.81; hit in A549: not a hit in A549; hit in 1833: not a hit in 1833; outcome: inactive
BMPR2 (bone morphogenetic protein receptor type 2) — fold over scrambled siRNA, A549: 8.06; fold over scrambled siRNA, 1833: 11.7; hit in A549: hit in A549; hit in 1833: hit in 1833; outcome: active
PIP4K2A (phosphatidylinositol-5-phosphate 4-kinase type 2 alpha) — fold over scrambled siRNA, A549: 2.31; fold over scrambled siRNA, 1833: 2.19; hit in A549: not a hit in A549; hit in 1833: not a hit in 1833; outcome: inactive

Just “hit in 1833”, for 2 of the entries above:
RPS6KB2 (ribosomal protein S6 kinase B2)	not a hit in 1833
PRAG1 (PEAK1 related, kinase-activating pseudokinase 1)	not a hit in 1833
